Earlier results as cited in patent US7766979B2, “Phase transformation in molecular solids” (Avantium International B.V., priority 2004, dated 2010).
Like-named read-outs stand apart in the source and are kept apart here. For at least one compound, name, drawing or mass did not settle the structure.

Conditions: cited from earlier work

Row | SMILES | density (listed as form 2) [g/mL] | density (listed as form 1) [g/mL]
1 | Cc1ccnc(NS(=O)(=O)c2ccc(N)cc2)n1 [sulfamerazine form 2, 2-Sulfanilamido-4-methylpyrimidine] | 1.43 | –
2 | Cc1ccnc(NS(=O)(=O)c2ccc(N)cc2)n1 [sulfamerazine form 1, 2-Sulfanilamido-4-methylpyrimidine] | – | 1.35
